# Reference: PubChem BioAssay AID1508597 (Cure First, 2020)
# Screen: 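Genes whose silencing sensitises or protects ovarian cancer cells against rucaparib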 (primary screen)
# Cell system: human ovarian carcinoma lines grown from tumours: OCI-P5x (papillary serous) and OCI-C5x (clear cell)
# Knock-down reagent: siRNA pool against human genes, 1.25 pmol siRNA per well
# Duration: 72 h or 96 h, depending on the cell culture
# Treatment: rucaparib 20 µM (about IC30) or vehicle, present until read-out
# Detection: 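ATP luminescence measured at 72 or 96 h according to the culture, then normalised and expressed as percent viability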
# Scale: viability, normalised: higher = more viable cells remaining
# Active means: 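a well counts as a hit if its normalised viability is under 80 percent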
# Calls: active = viability under 80%; inactive = viability 80% or more
# The whole screen tested about 2,100 reagents; shown is a part drawn at random. 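Calls flag viability under 80% in either arm, not effects specific to rucaparib; the reference for percent is not stated.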 Some reagents were tested in more than one well and are listed for each. Not stated in the record: the 100% reference.
target,rucaparib or vehicle,cell line,technical replicate,"viability, normalised (%)",Outcome
PRDM16 (PR/SET domain 16),Rucaparib,OCI-C5x (clear cell),1,60.9,active
PRDM16 (PR/SET domain 16),Rucaparib,OCI-C5x (clear cell),2,39.2,active
PRDM16 (PR/SET domain 16),Rucaparib,OCI-C5x (clear cell),3,34.6,active
PRDM16 (PR/SET domain 16),Rucaparib,OCI-P5x (serous),1,32.1,active
PRDM16 (PR/SET domain 16),Rucaparib,OCI-P5x (serous),2,42.9,active
PRDM16 (PR/SET domain 16),Rucaparib,OCI-P5x (serous),3,41.9,active
PRDM16 (PR/SET domain 16),Vehicle,OCI-C5x (clear cell),1,40.6,active
PRDM16 (PR/SET domain 16),Vehicle,OCI-C5x (clear cell),2,37.4,active
PRDM16 (PR/SET domain 16),Vehicle,OCI-C5x (clear cell),3,39.7,active
PRDM16 (PR/SET domain 16),Vehicle,OCI-P5x (serous),1,51.6,active
PRDM16 (PR/SET domain 16),Vehicle,OCI-P5x (serous),2,62.4,active
PRDM16 (PR/SET domain 16),Vehicle,OCI-P5x (serous),3,126,inactive
GRK3 (G protein-coupled receptor kinase 3),Rucaparib,OCI-C5x (clear cell),1,43.6,active
GRK3 (G protein-coupled receptor kinase 3),Rucaparib,OCI-C5x (clear cell),1,49,active
GRK3 (G protein-coupled receptor kinase 3),Rucaparib,OCI-C5x (clear cell),2,72.6,active
GRK3 (G protein-coupled receptor kinase 3),Rucaparib,OCI-C5x (clear cell),2,46.2,active
GRK3 (G protein-coupled receptor kinase 3),Rucaparib,OCI-C5x (clear cell),3,48.4,active
GRK3 (G protein-coupled receptor kinase 3),Rucaparib,OCI-C5x (clear cell),3,65.1,active
GRK3 (G protein-coupled receptor kinase 3),Rucaparib,OCI-P5x (serous),1,82.3,inactive
GRK3 (G protein-coupled receptor kinase 3),Rucaparib,OCI-P5x (serous),1,86.4,inactive
GRK3 (G protein-coupled receptor kinase 3),Rucaparib,OCI-P5x (serous),2,76.1,active
GRK3 (G protein-coupled receptor kinase 3),Rucaparib,OCI-P5x (serous),2,111,inactive
GRK3 (G protein-coupled receptor kinase 3),Rucaparib,OCI-P5x (serous),3,92.2,inactive
GRK3 (G protein-coupled receptor kinase 3),Rucaparib,OCI-P5x (serous),3,91.7,inactive
GRK3 (G protein-coupled receptor kinase 3),Vehicle,OCI-C5x (clear cell),1,85,inactive
GRK3 (G protein-coupled receptor kinase 3),Vehicle,OCI-C5x (clear cell),1,53.9,active
GRK3 (G protein-coupled receptor kinase 3),Vehicle,OCI-C5x (clear cell),2,53.6,active
GRK3 (G protein-coupled receptor kinase 3),Vehicle,OCI-C5x (clear cell),3,63.7,active
GRK3 (G protein-coupled receptor kinase 3),Vehicle,OCI-C5x (clear cell),3,42.6,active
GRK3 (G protein-coupled receptor kinase 3),Vehicle,OCI-P5x (serous),1,104,inactive
GRK3 (G protein-coupled receptor kinase 3),Vehicle,OCI-P5x (serous),1,90.9,inactive
GRK3 (G protein-coupled receptor kinase 3),Vehicle,OCI-P5x (serous),2,77.8,active
GRK3 (G protein-coupled receptor kinase 3),Vehicle,OCI-P5x (serous),2,92.3,inactive
GRK3 (G protein-coupled receptor kinase 3),Vehicle,OCI-P5x (serous),3,81.3,inactive
GRK3 (G protein-coupled receptor kinase 3),Vehicle,OCI-P5x (serous),3,95.1,inactive
"PTTG3P (pituitary tumor-transforming 3, pseudogene)",Rucaparib,OCI-C5x (clear cell),1,61.8,active
"PTTG3P (pituitary tumor-transforming 3, pseudogene)",Rucaparib,OCI-C5x (clear cell),2,53.5,active
"PTTG3P (pituitary tumor-transforming 3, pseudogene)",Rucaparib,OCI-C5x (clear cell),3,51.4,active
"PTTG3P (pituitary tumor-transforming 3, pseudogene)",Rucaparib,OCI-P5x (serous),1,66.3,active
"PTTG3P (pituitary tumor-transforming 3, pseudogene)",Rucaparib,OCI-P5x (serous),2,46.6,active
"PTTG3P (pituitary tumor-transforming 3, pseudogene)",Rucaparib,OCI-P5x (serous),3,55.1,active
"PTTG3P (pituitary tumor-transforming 3, pseudogene)",Vehicle,OCI-C5x (clear cell),1,58.4,active
"PTTG3P (pituitary tumor-transforming 3, pseudogene)",Vehicle,OCI-C5x (clear cell),2,54.1,active
"PTTG3P (pituitary tumor-transforming 3, pseudogene)",Vehicle,OCI-C5x (clear cell),3,78.3,active
"PTTG3P (pituitary tumor-transforming 3, pseudogene)",Vehicle,OCI-P5x (serous),1,62.1,active
"PTTG3P (pituitary tumor-transforming 3, pseudogene)",Vehicle,OCI-P5x (serous),2,68.1,active
"PTTG3P (pituitary tumor-transforming 3, pseudogene)",Vehicle,OCI-P5x (serous),3,154,inactive

Single entries from the entries so far.
PRDM16 (PR/SET domain 16), rucaparib or vehicle Rucaparib, cell line OCI-C5x (clear cell), technical replicate 1, Outcome: active
Result of PTTG3P (pituitary tumor-transforming 3, pseudogene), rucaparib or vehicle Rucaparib, cell line OCI-C5x (clear cell), technical replicate 3 under “viability, normalised (%)”: 51.4
Value for PRDM16 (PR/SET domain 16), rucaparib or vehicle Vehicle, cell line OCI-C5x (clear cell), technical replicate 2 under “viability, normalised (%)”: 37.4
Result of PRDM16 (PR/SET domain 16), rucaparib or vehicle Vehicle, cell line OCI-P5x (serous), technical replicate 3 under “Outcome”: inactive
Value of PTTG3P (pituitary tumor-transforming 3, pseudogene), rucaparib or vehicle Rucaparib, cell line OCI-C5x (clear cell), technical replicate 2 in “Outcome”: active
For “Outcome”, PRDM16 (PR/SET domain 16), rucaparib or vehicle Vehicle, cell line OCI-P5x (serous), technical replicate 2 reads active

The listing continues.
target,rucaparib or vehicle,cell line,technical replicate,"viability, normalised (%)",Outcome
BRCA1 (BRCA1 DNA repair associated),Rucaparib,OCI-C5x (clear cell),1,47.6,active
BRCA1 (BRCA1 DNA repair associated),Rucaparib,OCI-C5x (clear cell),1,50.6,active
BRCA1 (BRCA1 DNA repair associated),Rucaparib,OCI-C5x (clear cell),2,45.2,active
BRCA1 (BRCA1 DNA repair associated),Rucaparib,OCI-C5x (clear cell),2,41.3,active
BRCA1 (BRCA1 DNA repair associated),Rucaparib,OCI-C5x (clear cell),3,38.9,active
BRCA1 (BRCA1 DNA repair associated),Rucaparib,OCI-C5x (clear cell),3,36.2,active
BRCA1 (BRCA1 DNA repair associated),Rucaparib,OCI-P5x (serous),1,38.9,active
BRCA1 (BRCA1 DNA repair associated),Rucaparib,OCI-P5x (serous),1,92.4,inactive
BRCA1 (BRCA1 DNA repair associated),Rucaparib,OCI-P5x (serous),2,89.8,inactive
BRCA1 (BRCA1 DNA repair associated),Rucaparib,OCI-P5x (serous),2,41.2,active
BRCA1 (BRCA1 DNA repair associated),Rucaparib,OCI-P5x (serous),3,65.9,active
BRCA1 (BRCA1 DNA repair associated),Rucaparib,OCI-P5x (serous),3,43.6,active
BRCA1 (BRCA1 DNA repair associated),Vehicle,OCI-C5x (clear cell),1,43.6,active
BRCA1 (BRCA1 DNA repair associated),Vehicle,OCI-C5x (clear cell),1,53.4,active
BRCA1 (BRCA1 DNA repair associated),Vehicle,OCI-C5x (clear cell),2,44.4,active
BRCA1 (BRCA1 DNA repair associated),Vehicle,OCI-C5x (clear cell),2,39.3,active
BRCA1 (BRCA1 DNA repair associated),Vehicle,OCI-C5x (clear cell),3,30.7,active
BRCA1 (BRCA1 DNA repair associated),Vehicle,OCI-C5x (clear cell),3,44.1,active
BRCA1 (BRCA1 DNA repair associated),Vehicle,OCI-P5x (serous),1,57.7,active
BRCA1 (BRCA1 DNA repair associated),Vehicle,OCI-P5x (serous),1,66.2,active
BRCA1 (BRCA1 DNA repair associated),Vehicle,OCI-P5x (serous),2,59.7,active
BRCA1 (BRCA1 DNA repair associated),Vehicle,OCI-P5x (serous),2,57.6,active
BRCA1 (BRCA1 DNA repair associated),Vehicle,OCI-P5x (serous),3,63.6,active
BRCA1 (BRCA1 DNA repair associated),Vehicle,OCI-P5x (serous),3,72.7,active
TFRC (transferrin receptor),Rucaparib,OCI-C5x (clear cell),1,61.9,active
TFRC (transferrin receptor),Rucaparib,OCI-C5x (clear cell),2,63.9,active
TFRC (transferrin receptor),Rucaparib,OCI-C5x (clear cell),3,74.3,active
TFRC (transferrin receptor),Rucaparib,OCI-P5x (serous),1,75.8,active
TFRC (transferrin receptor),Rucaparib,OCI-P5x (serous),2,69.2,active
TFRC (transferrin receptor),Rucaparib,OCI-P5x (serous),3,83,inactive
TFRC (transferrin receptor),Vehicle,OCI-C5x (clear cell),1,83.6,inactive
TFRC (transferrin receptor),Vehicle,OCI-C5x (clear cell),2,63.2,active
TFRC (transferrin receptor),Vehicle,OCI-C5x (clear cell),3,66.5,active
TFRC (transferrin receptor),Vehicle,OCI-P5x (serous),1,82.8,inactive
TFRC (transferrin receptor),Vehicle,OCI-P5x (serous),2,64.6,active
TFRC (transferrin receptor),Vehicle,OCI-P5x (serous),3,77.3,active
